Laboratory results: the supplement of paper PMC3334620
The full ranking holds about 33,000 sequences; the median of “E-score (-0.5 to 0.5)” is about -0.015, and the highest 2% start at about 0.3. This is one part of the list.

Target: T1, Abf1 (UniProt P14164)
T1 sequence: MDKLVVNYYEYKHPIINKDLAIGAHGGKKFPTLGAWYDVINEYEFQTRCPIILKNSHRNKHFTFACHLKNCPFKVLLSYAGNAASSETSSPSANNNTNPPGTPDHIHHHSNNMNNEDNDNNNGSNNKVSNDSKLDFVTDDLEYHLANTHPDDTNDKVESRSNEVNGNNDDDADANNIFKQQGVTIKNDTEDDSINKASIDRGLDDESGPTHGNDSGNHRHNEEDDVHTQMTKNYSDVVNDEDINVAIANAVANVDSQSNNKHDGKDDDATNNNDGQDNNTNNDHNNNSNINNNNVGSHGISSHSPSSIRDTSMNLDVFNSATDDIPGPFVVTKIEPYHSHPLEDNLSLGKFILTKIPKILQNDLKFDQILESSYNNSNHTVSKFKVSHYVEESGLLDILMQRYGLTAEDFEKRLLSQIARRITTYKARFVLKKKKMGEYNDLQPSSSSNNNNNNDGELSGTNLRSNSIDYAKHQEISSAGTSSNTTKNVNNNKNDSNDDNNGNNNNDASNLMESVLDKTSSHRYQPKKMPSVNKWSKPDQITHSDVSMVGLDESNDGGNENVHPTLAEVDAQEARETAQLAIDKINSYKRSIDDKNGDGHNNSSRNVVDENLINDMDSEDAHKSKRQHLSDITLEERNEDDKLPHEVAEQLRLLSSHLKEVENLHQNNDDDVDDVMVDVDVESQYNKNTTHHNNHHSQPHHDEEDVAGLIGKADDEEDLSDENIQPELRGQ
Assay: PBM E-score (8-mer binding enrichment) (E-score (-0.5 to 0.5)); higher = stronger / more preferred TF binding
Conditions: protein concentration: 200 nM; construct: GST-full length
Outline: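 Universal all-10-mer Agilent arrays, double-stranded by primer extension on fresh or once-stripped slides, were probed with about 100-200 nM GST-tagged yeast transcription factors made by PURExpress. Fluorescent anti-GST detected bound protein, and masliner normalised the scans. E-scores from the Universal PBM Analysis Suite were given to each ungapped eight-base word pooled with its reverse complement.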

| Sequence | PBM E-score |
| --- | --- |
| TCGGGTAA | -0.126 |
| CGGCCTGC | -0.27 |
| GCCTAAAC | -0.0714 |
| ATGGCCGA | -0.024 |
| GGCGGCAA | -0.0496 |
| AGTAGTGC | -0.1 |
| GTGTCCTA | -0.0229 |
| GCGAAGAA | 0.148 |
| CGGAAGCC | -0.2 |
| GCAACATA | 0.0454 |
| AGTGGCGA | 0.0606 |
| GTGTCTGA | -0.0561 |
| TGACACCA | -0.0554 |
| ATTCCACG | 0.0645 |
| CTAAATTC | 0.137 |
| CGGTTCAC | -0.0967 |
| AACGTTAG | 0.133 |
| GGGTACTA | 0.0786 |
| CACTCCTA | 0.13 |
| TCCGCACA | -0.0757 |
| ATAAAAAA | 0.134 |
| CGTGGCGA | 0.194 |
| ATGAGGTA | 0.0798 |
| AAGACGTA | 0.245 |
| AAGCGGAT | -0.18 |

Retrieved one by one from the entries so far:

| Sequence | PBM E-score |
| --- | --- |
| TCCGCACA | -0.0757 |
| GCGAAGAA | 0.148 |
| ATGAGGTA | 0.0798 |
| CTAAATTC | 0.137 |
| GTGTCTGA | -0.0561 |
| TGACACCA | -0.0554 |

Additional results follow.

| Sequence | PBM E-score |
| --- | --- |
| GACTAAGA | 0.0632 |
| ATCAGTTA | 0.156 |
| AGGTGGAT | -0.0903 |
| ACGATGAT | 0.322 |
| CTTTTCTA | 0.0514 |
| CGATCCAG | -0.0671 |
| GTTCGGCA | 0.0673 |
| CTTCTAAA | 0.116 |
| TAGACTGA | -0.0649 |
| ACGCTGAG | -0.0124 |
| ACTCACCA | -0.058 |
| TAATGGAA | 0.0705 |
| CGAATCAC | 0.246 |
| AAAATACC | 0.114 |
| AAGACCCC | -0.00909 |
| AGCAAGCT | -0.315 |
| AATCAACC | -0.0117 |
| AGAAGTGC | -0.00824 |
| AAGGAACC | -0.053 |
| AAAAGTAT | 0.159 |
| GTGTTCTA | 0.00768 |
| ACGGCGTA | 0.287 |
| ATTTGAGA | 0.0567 |
| AACCTCGA | -0.0703 |
| CTAAGAGC | -0.3 |

Single entries from the list:
Under PBM E-score, GTTCGGCA is listed with 0.0673
Under PBM E-score, GGGTACTA is listed with 0.0786
Under PBM E-score, GTGTCCTA is listed with -0.0229
Under PBM E-score, ATGGCCGA is listed with -0.024

Further entries:

| Sequence | PBM E-score |
| --- | --- |
| CCTTCATA | 0.0639 |
| GCCCCGCC | -0.188 |
| CGTCGTGA | 0.351 |
| ACTAACGA | 0.231 |
| ACCTTTGG | -0.236 |
| GAGTTAGC | 0.0721 |
| GTGCGCAA | 0.0394 |
| AGGGGACT | -0.0774 |
| CGTTTCGC | -0.00566 |
| GCAACTAA | 0.152 |
| CGAACGCG | 0.162 |
| TCCCTCGA | -0.116 |
| GTCGTCTA | 0.287 |
| CAAGAAGC | 0.0432 |
| AGGCCTCA | -0.116 |
| AGTAAACA | 0.0317 |
| CAACGGAG | -0.039 |
| CTTACAGC | 0.00998 |
| CCACTCAG | -0.199 |
| CACCCGGA | -0.0476 |
| CCCCGGAC | -0.105 |
| GGAGGGAC | -0.178 |
| CAGGACTG | -0.0757 |
| CTTACTAC | 0.148 |
| ATCGCCCC | -0.113 |

| Sequence | PBM E-score |
| --- | --- |
| CGATAGAC | 0.144 |
| ATTTTTGG | -0.00624 |
| ACTAGTGC | 0.104 |
| CACACCCA | 0.08 |
| ACACTAAC | 0.0344 |
| GTACTAAA | 0.226 |
| CCTCCTAC | -0.28 |
| CCGACGTA | 0.0955 |
| GTCTCCAA | 0.00955 |
| CTCTGTAC | 0.099 |
| ATCAGAAT | 0.0679 |
| CTACGTTC | 0.017 |
| ACGCACCC | -0.178 |
| AGCAATCA | -0.0101 |
| AGCCCGCC | -0.174 |
| GAACGCTC | -0.0341 |
| ATATGACC | -0.0352 |
| CTTCATGA | 0.13 |
| CAGCATGG | -0.147 |
| GAAATACC | 0.0952 |
| GAAGCCCC | -0.254 |
| ATAGGAAT | -0.0297 |
| CAGCGAGC | 0.185 |
| AGGAGAGG | -0.224 |
| AGGCAGGG | -0.248 |

| Sequence | PBM E-score |
| --- | --- |
| GGAGAAGA | -0.209 |
| TCCCCTCA | -0.0459 |
| AAGTCCCT | -0.0859 |
| GCGTTTAC | -0.132 |
| CGCCGTAA | 0.0647 |
| CTTTGCTA | -0.00827 |
| CGCGTGCC | 0.0605 |
| CAGAAGAC | 0.121 |
| AGGTCCAG | 0.0361 |
| TAGCCCCA | -0.208 |
| ACCATATG | -0.104 |
| CTGCTCGA | -0.263 |
| AAACTCGA | -0.0506 |
| ACACATGG | -0.102 |
| CCCCCTCC | -0.37 |
| GTGAGGCA | 0.122 |
| CTAAGGAA | -0.0229 |
| ATGTGCCC | -0.0158 |
| GAGAACGC | -0.0847 |
| CCTGAGTC | -0.0814 |
| ACCATGTA | 0.0521 |
| ATTTGGTG | 0.0293 |
| ATCACCGG | 0.101 |
| ATTCCGTA | 0.166 |
| CTCGCCAA | -0.137 |

| Sequence | PBM E-score |
| --- | --- |
| CCGCATAG | -0.026 |
| GCTTAAAC | -0.189 |
| AAACCATT | -0.0604 |
| GTAATGAA | 0.0369 |
| AGGAGCAG | -0.293 |
| CATTACTC | 0.00345 |
| ATGCTGTC | 0.0728 |
| ATGCGTGA | 0.177 |
| AACCAAGC | -0.204 |
| CCGCCGGA | -0.07 |
| GCTCACGA | 0.125 |
| GATTGTCC | 0.179 |
| ACAATATC | 0.265 |
| CGGTCGGA | 0.0636 |
| CTATGGTA | 0.0305 |
| ACAGTTAC | 0.0978 |
| AACCACGC | -0.0491 |
| GACCATAA | 0.129 |
| CGCGTACA | 0.117 |
| AGTGCGTC | -0.125 |
| CGTAGACC | -0.0641 |
| TAAAGGAA | -0.0901 |
| ATAGGGCG | 0.0271 |
| AGCGTTCG | -0.117 |
| ACAGGTGG | -0.0522 |

| Sequence | PBM E-score |
| --- | --- |
| CGCCCACA | -0.153 |
| ATAAGCCA | 0.0643 |
| CGTAAGAA | 0.282 |
| CTATTGAC | 0.136 |
| ATGCTACA | 0.128 |
| AAGGTAGC | -0.0728 |
| CCTGCACG | 0.137 |
| AGTATAGC | -0.176 |
| GATAATCC | 0.0776 |
| AGAGCTGC | -0.161 |
| ACACCACG | -0.153 |
| CAATGAAC | -0.0206 |
| ACCATGAG | -0.108 |
| CTATCGTA | 0.281 |
| CAATTTTC | -0.0326 |
| AGATCCTC | -0.0761 |
| ATCTGTTA | 0.178 |
| CGATCCCA | -0.00308 |
| AAGAAACT | 0.00097 |
| AGGGGGCA | -0.273 |
| CCCCCTGA | -0.383 |
| ACGAGCAA | 0.0253 |
| CCTTATCC | -0.276 |
| AACATAAT | 0.0774 |
| ATTATGGC | -0.0611 |

| Sequence | PBM E-score |
| --- | --- |
| CAAAATGA | 0.275 |
| GTGGTATA | -0.0621 |
| CGACCACA | -0.0906 |
| GACGCGCC | -0.0135 |
| ACTCGCGA | 0.152 |
| AGCAGCAG | -0.0397 |
| GCCCAGGC | -0.235 |
| ACTGCAAT | -0.101 |
| ACCACTGG | -0.103 |
| CGCCGAAG | -0.243 |
| ACAACGAA | 0.16 |
| ACAATTCC | 0.0825 |
| GACAGTAA | 0.0216 |
| TGAATAAA | 0.16 |
| ATGAAGGG | -0.0285 |
| CGTTGGGA | 0.0305 |
| ATCGTTTA | 0.321 |
| AGCTGGAG | -0.18 |
| ATGCGCCC | -0.0262 |
| CAAGCTAC | -0.128 |
| AGGGCTTG | -0.00461 |
| CGGGATAG | -0.00646 |
| CTACGGAG | 0.18 |
| GCCAGACC | -0.158 |
| ACGAGTCT | 0.0644 |

| Sequence | PBM E-score |
| --- | --- |
| CTGGCAGA | -0.057 |
| CACCAATC | -0.0474 |
| CACGTTAG | 0.0535 |
| CTACGTCA | 0.146 |
| ATCACGGA | 0.246 |
| ACAGCGGT | -0.124 |
| GGCGTTAA | -0.0411 |
| GTCAACTA | 0.124 |
| ACAGAGCC | -0.144 |
| CCGTGTCG | 0.0187 |
| AATGTCGG | -0.0313 |
| ACTCGATA | 0.199 |
| CATCGAAA | -0.091 |
| TATCATCA | 0.385 |
| AATACGCG | 0.06 |
| CCCCTATA | -0.171 |
| AATGACCC | -0.111 |
| GAATCAGC | -0.149 |
| CCAAAGCG | 0.0362 |
